According to PubChem BioAssay AID328 (DTP/NCI, 2004):
The list is a part of this screen's results and no random one: it is rich in T/C values a quarter to a half above the control, in often repeated tests (any T/C) and in doses without a T/C. Other doses and runs of a compound stand elsewhere. T/C: endpoint of the treated group in % of that of the vehicle group. Some doses have a count of surviving animals in place of a T/C: the source holds a T/C of zero for them, seemingly a mark for toxic or unscored doses. Some survivor counts are full or nearly so, which does not show that the dose was tolerated: survival well below the control is almost never listed, so the zero probably covers shortened survival too. Survivors were counted at the toxicity check, usually on the fifth day, unless a day is given; later deaths do not show. Schedule codes are those of the source, taken here to give the interval after Q, in days (D) or hours (H), and the number of doses after X. For survival time, this PubChem deposit counts one and a half times the control or more as active, and values a quarter to a half above the control carry no call in these data; other NCI protocols may use other cut-offs. Some entries were tested several times; the results are listed from low to high. Some T/C values are followed by the survivors on the day toxicity was checked, most often the fifth; without a count, all were alive then.

Tested on: BDF1 mice, P388 leukemia ip, median survival T/C
Test: NCI In Vivo Anticancer Drug Screen. Data for tumor model P388 Leukemia (intraperitoneal) in B6D2F1 (BDF1) mice
Settings: T/C endpoint: median survival time, higher T/C = longer survival
Outline: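 Reported as T/C, where T is the survival measurement in dosed animals and C the same measurement in vehicle controls.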

[1] = dose: 200.0 mg/kg/injection, schedule: Q01DX009 (ip), vehicle: saline with Tween-80
[2] = dose: 400.0 mg/kg/injection, schedule: Q04DX003 (ip), vehicle: Klucel (hydroxypropylcellulose) (HPC)

## COc1cc(C(=O)N(CCCl)N=O)cc(OC)c1OC
dose: 400.0 mg/kg/injection, schedule: Q01DX009 (ip), vehicle: saline with Tween-80
  survivor count: 3 of 6

## CC[C@]1(O)C[C@H](OC2CC(N(C)C)C(OC3CC(O)C(O)C(C)O3)C(C)O2)c2c(cc3c(c2O)C(=O)c2c(O)ccc(O)c2C3=O)[C@H]1C(=O)OC (stereo not given in full)
dose: 0.2 mg/kg/injection, schedule: Q01DX009 (ip), vehicle: Klucel (hydroxypropylcellulose) (HPC)
  T/C: 128 and 129 % of control
dose: 0.4 mg/kg/injection, schedule: Q01DX009 (ip), vehicle: Klucel (hydroxypropylcellulose) (HPC)
  T/C: 134 % of control
dose: 16.0 mg/kg/injection, schedule: Q04DX003 (ip), vehicle: other
  survivor count: 8 of 8

## Nc1[nH]c(=S)[nH]c(=O)c1N
dose: 150.0 mg/kg/injection, schedule: Q01DX009 (ip), vehicle: Klucel (hydroxypropylcellulose) (HPC)
  survivor count: 3 of 6
dose: 300.0 mg/kg/injection, schedule: Q01DX009 (ip), vehicle: Klucel (hydroxypropylcellulose) (HPC)
  survivor count: 2 of 6
dose: 400.0 mg/kg/injection, schedule: Q01DX001 (ip), vehicle: Klucel (hydroxypropylcellulose) (HPC)
  survivor count: 2 of 6

## Fc1ccccc1C1=NCC(=S)N(CC(F)(F)F)c2ccc(Cl)cc21
[1]
  survivor count: 3 of 6

## O=C1C=CC(=O)N1CCc1ccccc1
dose: 40.0 mg/kg/injection, schedule: Q04DX003 (ip), vehicle: saline with Tween-80
  survivor count: 0 of 6

## CN[C@H]1CCc2cc(OC)c(OC)c(OC)c2-c2ccc(OC)c(=O)cc21
dose: 2.5 mg/kg/injection, schedule: Q01DX009 (ip), vehicle: saline
  T/C: 125 % of control
dose: 5.0 mg/kg/injection, schedule: Q01DX009 (ip), vehicle: saline
  T/C: 127 % of control
dose: 20.0 mg/kg/injection, schedule: Q01DX009 (ip), vehicle: saline
  survivor count: 6 of 6

## Cc1cccc2nc(Oc3ccccc3)nc(=O)n12
[1]
  survivor count: 0 of 6

## O=C(Nc1ccc2ncccc2c1)Nc1ccc2ncccc2c1
dose: 200.0 mg/kg/injection, schedule: Q01DX009 (ip), vehicle: Klucel (hydroxypropylcellulose) (HPC)
  survivor count: 6 of 6

## Cc1cc(/C=C/c2cc[n+](C)c3ccccc23)c(O)c2ncccc12
dose: 1.5 mg/kg/injection, schedule: Q01DX009 (ip), vehicle: saline
  T/C: 136 % of control
dose: 3.0 mg/kg/injection, schedule: Q01DX009 (ip), vehicle: Klucel (hydroxypropylcellulose) (HPC)
  T/C: 130 % of control
dose: 24.0 mg/kg/injection, schedule: Q01DX009 (ip), vehicle: Klucel (hydroxypropylcellulose) (HPC)
  survivor count: 5 of 6
dose: 48.0 mg/kg/injection, schedule: Q01DX009 (ip), vehicle: Klucel (hydroxypropylcellulose) (HPC)
  survivor count: 2 of 6

## COC(=O)CCC1(c2ccccc2)CCCC1=O (stereo not given)
dose: 50.0 mg/kg/injection, schedule: Q01DX009 (ip), vehicle: water
  survivor count: 4 of 6
dose: 200.0 mg/kg/injection, schedule: Q01DX009 (ip), vehicle: water
  survivor count: 6 of 6
dose: 400.0 mg/kg/injection, schedule: Q01DX009 (ip), vehicle: water
  survivor count: 0 of 6

## C#CC[N+](CCO)(CCO)CCCCCCCCCCCCCCCCCC
dose: 25.0 mg/kg/injection, schedule: Q01DX009 (ip), vehicle: Klucel (hydroxypropylcellulose) (HPC)
  survivor count: 5 of 6
dose: 50.0 mg/kg/injection, schedule: Q01DX009 (ip), vehicle: Klucel (hydroxypropylcellulose) (HPC)
  survivor count: 1 of 6

## O=C(Oc1ccccc1[N+](=O)[O-])c1ccccc1
dose: 100.0 mg/kg/injection, schedule: Q04DX003 (ip), vehicle: other
  survivor count: 6 of 6
dose: 200.0 mg/kg/injection, schedule: Q04DX003 (ip), vehicle: other
  survivor count: 6 of 6

## CCOCc1cc([N+](=O)[O-])cc([N+](=O)[O-])c1O
dose: 50.0 mg/kg/injection, schedule: Q01DX009 (ip), vehicle: saline with Tween-80
  survivor count: 1 of 6

## CCCC[N+](CCCC)(CCCC)CCCC.Cc1ccc([SH2+])c([SH2+])c1.Cc1ccc([SH2+])c([SH2+])c1.[Fe+3]
dose: 100.0 mg/kg/injection, schedule: Q04DX003 (ip), vehicle: Klucel (hydroxypropylcellulose) (HPC)
  T/C: 127, 130, 131 % of control
dose: 300.0 mg/kg/injection, schedule: Q04DX003 (ip), vehicle: Klucel (hydroxypropylcellulose) (HPC)
  survivor count: 5 of 6
[2]
  T/C: 135 % of control [5 of 6 alive]
  survivor count: 4 of 6
